The assay can be described thus: qHTS Assay to Find Inhibitors of Chronic Active B-Cell Receptor Signaling. The conditions noted are these: ABC-DLBCL IkBa-CBG/CBR reporter, luminescence ratio (green luciferase fused to IkBa over red control in TMD8 lymphoma cells), 4 h. In a few lines:
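TMD8 ABC-DLBCL cells carrying doxycycline-inducible green luciferase fused to IkappaBalpha plus unfused red luciferase were exposed to compounds (up to 46 uM) for 4 hrs at 37C. Activity came from the overlap-corrected green/red luminescence ratio.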

Where [1] appears, read: measured here: CBR red luminescence, cell number.

The other results are listed elsewhere or left out. Shown are side measurements of this screen, not its main read-out; they come without a call. The list favours compounds with an active or inconclusive main result. The note in brackets gives the kind of curve behind each potency; many fits are weak.

One may read the AC50 as the midpoint of the concentration-response curve, whichever way the signal moves.

Turning to `O=C(/C=C/c1ccco1)Nc1ccc(CN2CCOCC2)cc1`, under setting [1], the AC50 was 35.5 µM [falling, single point]. Take `Cc1ccc(N(NC(=O)C(O)(c2ccccc2)c2ccccc2)C(=O)CCl)cc1`: the AC50 under setting [1] is 10.3 µM [falling, partial curve].

For the compound `Cc1noc(C)c1CSc1nc2ccccc2n1CCc1ccccc1`, the AC50 under setting [1] was 0.517 µM [rising, full curve, poor fit].

As to `Oc1c(C(Nc2nccs2)c2ccc(C(F)(F)F)cc2)ccc2cccnc12` (configuration not stated), the AC50 under setting [1] was 0.631 µM [falling, full curve, poor fit].

Regarding `CC(=O)CCC(=O)N1CCCC(N2CCN(c3cccc(Cl)c3)CC2)C1` (configuration not stated), under setting [1], the AC50 was 17.8 µM [rising, partial curve, poor fit].

`O=C(NCCc1ccc2c(c1)OCCO2)c1cc(S(=O)(=O)N2CCCC2)ccc1Cl`: the AC50 under setting [1] was 6.51 µM [rising, partial curve, poor fit]. In the case of `CCOC(=O)c1cc(C#N)c(Oc2ccccc2)nc1-c1ccccc1`, the AC50 under setting [1] is 1.3 µM [rising, full curve]. Turning to `CCCCOc1ccc(C(=O)Nc2ccc(S(=O)(=O)Nc3onc(C)c3C)cc2)cc1`, the AC50 under setting [1] was 12.6 µM [falling, single point].

Take `Cc1ccc(-n2c(SCc3ccccc3F)nc3[nH]ncc3c2=O)cc1C`: the AC50 under setting [1] is 22.4 µM [falling, single point]. Regarding `CC(Cc1cccs1)NC(=O)Nc1ccccc1` (configuration not stated), the AC50 under setting [1] is 5.62 µM [rising, single point]. Same read-out and setting: the result for `O=C(OCC(=O)N1N=C(c2ccc(Cl)cc2)CC1c1ccco1)c1cccnc1` (configuration not stated) reads 5.17 µM [falling, single point]; that for `CCOC(=O)CN1C(=O)N(CC)C(C)=C(C(=O)OC)[C@@H]1c1ccccc1`, 35.5 µM [rising, single point]; that for `CCNC(=O)COC(=O)c1ccc(-c2nc3ccccc3s2)s1`, 6.31 µM [falling, single point]. Take `O=C(Nc1ccccc1)c1cc(-c2ccccc2Cl)no1`: under setting [1], the AC50 was 2.51 µM [falling, partial curve]. As to `CCc1c(O)nc(SCC(=O)Nc2nc3ccccc3s2)n(C2CCCCC2)c1=O`, the AC50 under setting [1] is 12.6 µM [falling, partial curve, poor fit].

`O=C(Cc1ccc(Cl)cc1)Nc1ccccn1`: under setting [1], the concentration at half-maximal activity (AC50) was 0.316 µM [rising, full curve, poor fit]. The same measure, in the same setting: with `COc1cccc(OCc2nnc(-c3cccs3)o2)c1` the figure was 35.5 µM [falling, single point]; with `c1ccc(CSc2ncn(-c3ccccc3)n2)cc1`, 12.6 µM [falling, single point]; with `CC1CN(c2cc(=O)n(-c3ccccc3)c(=O)[nH]2)CC(C)O1` (configuration not stated), 11.6 µM [rising, partial curve, poor fit]. Same read-out and setting: the result for `CC1=CC(=C(C#N)c2nc3ccccc3s2)C=C(C)N1Cc1ccco1` reads 20 µM [rising, single point]; that for `CCn1c(C)cc(/C=C2\NC(=O)N(CC(=O)Nc3ccc(F)cc3)C2=O)c1C`, 35.5 µM [rising, single point]; that for `C=CCSc1nnc2nc3c(nn12)c1cc(C)ccc1n3CC=C`, 8.91 µM [rising, partial curve, poor fit]. Take `Oc1ccc(-c2nnc(Nc3ccccc3)c3ccccc23)cc1`: the concentration at half-maximal activity (AC50) (measured here: IkBa-CBG green luminescence) was 3.98 µM [falling, partial curve, poor fit]. As to `O=C(CSc1nc2c(c(=O)[nH]1)CN(Cc1ccc(F)cc1)CC2)Nc1ccc(F)cc1`, under setting [1], the AC50 is 32.6 µM [falling, partial curve, poor fit]. Still for that read-out and setting: with `Cc1ccc(S(=O)(=O)Cn2nnnc2C(c2ccc(F)cc2)N2CCC(C(N)=O)CC2)cc1` (configuration not stated) the figure was 23.1 µM [rising, partial curve, poor fit]; with `Oc1ccccc1C=Nc1ccccc1-c1nc2ccccc2[nH]1`, 7.31 µM [falling, partial curve].

`O=C(NCC1CCCO1)c1cccc(NC(=O)c2cccs2)c1` (configuration not stated): under setting [1], the AC50 is 35.5 µM [falling, single point]. Turning to `C[C@]1(C(=O)NCCc2c[nH]c3ccccc23)C=C[C@@H](Cc2ccccc2)N1C(=O)c1ccccc1`, the AC50 under setting [1] was 23.1 µM [falling, partial curve, poor fit].

Take `COc1ccc(C(=O)NC2=C(C#N)CCC2)cc1OC`: the AC50 under setting [1] is 2.06 µM [rising, partial curve, poor fit]. Still for that read-out and setting: with `O=C(Nc1nccs1)c1ccc2nccnc2c1` the figure was 20 µM [falling, partial curve, poor fit].

For `C/C(=N/NC(=O)c1ccc2nc[nH]c2c1)c1cccs1`, under setting [1], the AC50 is 1.64 µM [rising, partial curve, poor fit]. On the same count and under the same terms, with `Cc1ccc(NC(=O)CN2CCN(Cc3ccccc3)CC2)c(Br)c1` the figure was 35.5 µM [falling, single point].

On to `CCOc1ccccc1-n1c(SCC(=O)NC(C)(C)C)nnc1-c1ccoc1C`, for which, under setting [1], the AC50 is 35.5 µM [falling, single point]. Consider `CC(=O)Nc1ccc(NC(=O)C(C)OC(=O)CCCc2c[nH]c3ccccc23)cc1` (configuration not stated), for which the AC50 under setting [1] was 25.9 µM [rising, partial curve, poor fit]. In the case of `COc1cc2c(cc1NC(=O)CC1SC(N3CCCC3)=NC1=O)oc1ccccc12` (configuration not stated), under setting [1], the AC50 is 25.1 µM [falling, single point].

Regarding `CC(Cl)C(=O)c1ccc2c(c1)CCN2C(=O)C1CC1` (configuration not stated), under setting [1], the AC50 is 7.08 µM [rising, partial curve]. Still for that read-out and setting: with `Cc1cccc(NS(=O)(=O)c2cccc(C(=O)N3CCCCCC3)c2)c1` the figure was 3.26 µM [rising, single point]. Still for that read-out and setting: the result for `Cc1cc(C)n(C(=O)CNC(=O)c2cccc(Cl)c2)n1` reads 20 µM [rising, partial curve, poor fit]; that for `CCCSc1ccc(C(=O)Nc2ccc(F)cc2F)cn1`, 3.55 µM [falling, partial curve, poor fit]; that for `O=C(/C=N/O)Nc1ccccc1C(=O)O`, 10.3 µM [falling, partial curve, poor fit].

Turning to `CCOC(=O)c1ccc(Nc2cnc3ccccc3n2)cc1`, the AC50 under setting [1] is 0.1 µM [falling, full curve, poor fit]. Still for that read-out and setting: with `C=C1CCC[C@]2(C)C[C@H]3OC(=O)C(CN(C)CC(OC)OC)[C@H]3CC12` (some centres not stated) the figure was 11.2 µM [falling, partial curve].
